Earlier results in patent publication US7220769B2, “Azolylbenzamides and analogues and their use for treating osteoporosis” (Nikem Research S.R.L., priority 1999, dated 2007).
For at least one compound, name, drawing or mass did not settle the structure.

Test system: osteoclast proton pump
Details: membrane vesicles from avian osteoclasts, ATP-driven acidification, acridine orange quench; cited from earlier work

**Q.** With `COc1ccc2[nH]c([S+]([O-])Cc3ncc(C)c(OC)c3C)nc2c1` (stereo not shown) [omeprazole] as the molecule, how does the “proton transport inhibited / not inhibited” value read?
**A.** not inhibited
